# Some of the results follow.
# B1: CRT-1 (Homo sapiens), P27797 (protein)
# chain: MLLSVPLLLGLLGLAVAEPAVYFKEQFLDGDGWTSRWIESKHKSDFGKFVLSSGKFYGDEEKDKGLQTSQDARFYALSASFEPFSNKGQTLVVQFTVKHEQNIDCGGGYVKLFPNSLDQTDMHGDSEYNIMFGPDICGPGTKKVHVIFNYKGKNVLINKDIRCKDDEFTHLYTLIVRPDNTYEVKIDNSQVESGSLEDDWDFLPPKKIKDPDASKPEDWDERAKIDDPTDSKPEDWDKPEHIPDPDAKKPEDWDEEMDGEWEPPVIQNPEYKGEWKPRQIDNPDYKGTWIHPEIDNPEYSPDPSIYAYDNFGVLGLDLWQVKSGTIFDNFLITNDEAYAEEFGNETWGVTKAAEKQMKDKQDEEQRLKEEEEDKKRKEEEEAEDKEDDEDKDEDEEDEEDKEEDEEEDVPGQAKDEL
# Tests used:
# Experiment in all cases: glycan array binding signal (z-score within array); higher = stronger binding
# Settings in all cases: glycan notation: IUPAC condensed, linker removed
# [1] = biological target: GlcNAc(b1-2)[GlcNAc(b1-6)]Man(a1-6)[GlcNAc(b1-4)][GlcNAc(b1-2)Man(a1-3)]Man(b1-4)GlcNAc(b1-4)GlcNAc
# Procedure, shortened: (§1)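 Glycan array binding is given as a within-array Z-score, which can be read as non-binding when negative. The arrays, 3228 of them, came from the Consortium for Functional Glycomics database and were retained only where the protein sequence was available. Z-scores were averaged across arrays of the same protein sequence at different concentrations or buffers and across linkers.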
# [2] = biological target: GlcNAc(b1-3)Fuc
# Procedure, shortened: as §1
# [3] = biological target: GlcNAc(b1-3)Gal
# Procedure, shortened: as §1
# [4] = biological target: GlcNAc(b1-3)Gal(b1-3)GalNAc
# Procedure, shortened: as §1
# [5] = biological target: GlcNAc(b1-3)Gal(b1-4)Glc
# Procedure, shortened: as §1
# [6] = biological target: GlcNAc(b1-3)Gal(b1-4)GlcNAc
# Procedure, shortened: as §1
# [7] = biological target: GlcNAc(b1-3)Gal(b1-4)GlcNAc(b1-2)Man(a1-3)[GlcNAc(b1-3)Gal(b1-4)GlcNAc(b1-2)Man(a1-6)]Man(b1-4)GlcNAc(b1-4)GlcNAc
# Procedure, shortened: as §1
# [8] = biological target: GlcNAc(b1-3)Gal(b1-4)GlcNAc(b1-2)Man(a1-3)[GlcNAc(b1-3)Gal(b1-4)GlcNAc(b1-2)Man(a1-6)]Man(b1-4)GlcNAc(b1-4)[Fuc(a1-6)]GlcNAc
# Procedure, shortened: as §1
# [9] = biological target: GlcNAc(b1-3)Gal(b1-4)GlcNAc(b1-2)[GlcNAc(b1-3)Gal(b1-4)GlcNAc(b1-6)]Man(a1-6)[GlcNAc(b1-3)Gal(b1-4)GlcNAc(b1-2)Man(a1-3)]Man(b1-4)GlcNAc(b1-4)GlcNAc
# Procedure, shortened: as §1
# [10] = biological target: GlcNAc(b1-3)Gal(b1-4)GlcNAc(b1-3)Gal(b1-4)GlcNAc
# Procedure, shortened: as §1
# [11] = biological target: GlcNAc(b1-3)Gal(b1-4)GlcNAc(b1-3)Gal(b1-4)GlcNAc(b1-2)Man(a1-3)[GlcNAc(b1-3)Gal(b1-4)GlcNAc(b1-3)Gal(b1-4)GlcNAc(b1-2)Man(a1-6)]Man(b1-4)GlcNAc(b1-4)GlcNAc
# Procedure, shortened: as §1
# [12] = biological target: GlcNAc(b1-3)Gal(b1-4)GlcNAc(b1-3)Gal(b1-4)GlcNAc(b1-2)Man(a1-3)[GlcNAc(b1-3)Gal(b1-4)GlcNAc(b1-3)Gal(b1-4)GlcNAc(b1-2)Man(a1-6)]Man(b1-4)GlcNAc(b1-4)[Fuc(a1-6)]GlcNAc
# Procedure, shortened: as §1
# [13] = biological target: GlcNAc(b1-3)Gal(b1-4)GlcNAc(b1-3)Gal(b1-4)GlcNAc(b1-2)[GlcNAc(b1-3)Gal(b1-4)GlcNAc(b1-3)Gal(b1-4)GlcNAc(b1-6)]Man(a1-6)[GlcNAc(b1-3)Gal(b1-4)GlcNAc(b1-3)Gal(b1-4)GlcNAc(b1-2)Man(a1-3)]Man(b1-4)GlcNAc(b1-4)[Fuc(a1-6)]GlcNAc
# Procedure, shortened: as §1
# [14] = biological target: GlcNAc(b1-3)Gal(b1-4)GlcNAc(b1-3)Gal(b1-4)GlcNAc(b1-3)Gal(b1-4)GlcNAc(b1-2)Man(a1-3)[GlcNAc(b1-3)Gal(b1-4)GlcNAc(b1-3)Gal(b1-4)GlcNAc(b1-3)Gal(b1-4)GlcNAc(b1-2)Man(a1-6)]Man(b1-4)GlcNAc(b1-4)GlcNAc
# Procedure, shortened: as §1
# [15] = biological target: GlcNAc(b1-3)Gal(b1-4)GlcNAc(b1-3)Gal(b1-4)GlcNAc(b1-3)Gal(b1-4)GlcNAc(b1-2)Man(a1-3)[GlcNAc(b1-3)Gal(b1-4)GlcNAc(b1-3)Gal(b1-4)GlcNAc(b1-3)Gal(b1-4)GlcNAc(b1-2)Man(a1-6)]Man(b1-4)GlcNAc(b1-4)[Fuc(a1-6)]GlcNAc
# Procedure, shortened: as §1
# [16] = biological target: GlcNAc(b1-3)Gal(b1-4)GlcNAc(b1-3)Gal(b1-4)GlcNAc(b1-3)Gal(b1-4)GlcNAc(b1-2)[GlcNAc(b1-3)Gal(b1-4)GlcNAc(b1-3)Gal(b1-4)GlcNAc(b1-3)Gal(b1-4)GlcNAc(b1-6)]Man(a1-6)[GlcNAc(b1-3)Gal(b1-4)GlcNAc(b1-3)Gal(b1-4)GlcNAc(b1-3)Gal(b1-4)GlcNAc(b1-2)Man(a1-3)]Man(b1-4)GlcNAc(b1-4)[Fuc(a1-6)]GlcNAc
# Procedure, shortened: as §1
# [17] = biological target: GlcNAc(b1-3)Gal(b1-4)GlcNAc(b1-3)Gal(b1-4)GlcNAc(b1-3)Gal(b1-4)GlcNAc(b1-3)Gal(b1-4)GlcNAc(b1-2)Man(a1-3)[GlcNAc(b1-3)Gal(b1-4)GlcNAc(b1-3)Gal(b1-4)GlcNAc(b1-3)Gal(b1-4)GlcNAc(b1-3)Gal(b1-4)GlcNAc(b1-2)Man(a1-6)]Man(b1-4)GlcNAc(b1-4)GlcNAc
# Procedure, shortened: as §1
# [18] = biological target: GlcNAc(b1-3)Gal(b1-4)GlcNAc(b1-3)Gal(b1-4)GlcNAc(b1-3)Gal(b1-4)GlcNAc(b1-3)Gal(b1-4)GlcNAc(b1-2)Man(a1-3)[GlcNAc(b1-3)Gal(b1-4)GlcNAc(b1-3)Gal(b1-4)GlcNAc(b1-3)Gal(b1-4)GlcNAc(b1-3)Gal(b1-4)GlcNAc(b1-2)Man(a1-6)]Man(b1-4)GlcNAc(b1-4)[Fuc(a1-6)]GlcNAc
# Procedure, shortened: as §1
# [19] = biological target: GlcNAc(b1-3)Gal(b1-4)GlcNAc(b1-3)Gal(b1-4)GlcNAc(b1-3)Gal(b1-4)GlcNAc(b1-3)Gal(b1-4)GlcNAc(b1-2)[GlcNAc(b1-3)Gal(b1-4)GlcNAc(b1-3)Gal(b1-4)GlcNAc(b1-3)Gal(b1-4)GlcNAc(b1-3)Gal(b1-4)GlcNAc(b1-6)]Man(a1-6)[GlcNAc(b1-3)Gal(b1-4)GlcNAc(b1-3)Gal(b1-4)GlcNAc(b1-3)Gal(b1-4)GlcNAc(b1-3)Gal(b1-4)GlcNAc(b1-2)Man(a1-3)]Man(b1-4)GlcNAc(b1-4)[Fuc(a1-6)]GlcNAc
# Procedure, shortened: as §1
# [20] = biological target: GlcNAc(b1-3)Gal(b1-4)GlcNAc(b1-3)Gal(b1-4)GlcNAc(b1-3)GalNAc
# Procedure, shortened: as §1
# [21] = biological target: GlcNAc(b1-3)Gal(b1-4)GlcNAc(b1-3)GalNAc
# Procedure, shortened: as §1
# [22] = biological target: GlcNAc(b1-3)Gal(b1-4)GlcNAc(b1-3)[GlcNAc(b1-3)Gal(b1-4)GlcNAc(b1-3)]GalNAc
# Procedure, shortened: as §1
# [23] = biological target: GlcNAc(b1-3)Gal(b1-4)GlcNAc(b1-6)[Gal(b1-3)]GalNAc
# Procedure, shortened: as §1
# [24] = biological target: GlcNAc(b1-3)Gal(b1-4)GlcNAc(b1-6)[GlcNAc(b1-3)Gal(b1-3)]GalNAc
# Procedure, shortened: as §1
# [25] = biological target: GlcNAc(b1-3)Gal(b1-4)GlcNAc(b1-6)[GlcNAc(b1-3)]Gal(b1-4)GlcNAc
# Procedure, shortened: as §1
# [26] = biological target: GlcNAc(b1-3)GalNAc
# Procedure, shortened: as §1
# [27] = biological target: GlcNAc(b1-3)Man
# Procedure, shortened: as §1
# [28] = biological target: GlcNAc(b1-3)[GlcNAc(b1-4)][GlcNAc(b1-6)]GlcNAc
# Procedure, shortened: as §1
# [29] = biological target: GlcNAc(b1-3)[GlcNAc(b1-6)]Gal(b1-4)GlcNAc
# Procedure, shortened: as §1
# [30] = biological target: GlcNAc(b1-3)[GlcNAc(b1-6)]GalNAc
# Procedure, shortened: as §1
# [31] = biological target: GlcNAc(b1-3)[GlcNAc(b1-6)]GlcNAc(b1-4)GlcNAc
# Procedure, shortened: as §1
# [32] = biological target: GlcNAc(b1-4)Gal(b1-4)GlcNAc
# Procedure, shortened: as §1
# [33] = biological target: GlcNAc(b1-4)GlcNAc
# Procedure, shortened: as §1
# [34] = biological target: GlcNAc(b1-4)GlcNAc(b1-4)GlcNAc
# Procedure, shortened: as §1
# [35] = biological target: GlcNAc(b1-4)GlcNAc(b1-4)GlcNAc(b1-4)GlcNAc(b1-4)GlcNAc
# Procedure, shortened: as §1
# [36] = biological target: GlcNAc(b1-4)GlcNAc(b1-4)GlcNAc(b1-4)GlcNAc(b1-4)GlcNAc(b1-4)GlcNAc
# Procedure, shortened: as §1
# [37] = biological target: GlcNAc(b1-4)[GlcNAc(b1-6)]GalNAc
# Procedure, shortened: as §1
binder,measurement,setting,value
B1,glycan array binding signal (z-score),[1],-0.167
same,glycan array binding signal (z-score),[2],-0.292
same,glycan array binding signal (z-score),[3],-0.533
same,glycan array binding signal (z-score),[4],-0.052
same,glycan array binding signal (z-score),[5],0.118
same,glycan array binding signal (z-score),[6],-0.228
same,glycan array binding signal (z-score),[7],-0.076
same,glycan array binding signal (z-score),[8],0.131
same,glycan array binding signal (z-score),[9],2.14
same,glycan array binding signal (z-score),[10],-1
same,glycan array binding signal (z-score),[11],1.29
same,glycan array binding signal (z-score),[12],1.91
same,glycan array binding signal (z-score),[13],0.832
same,glycan array binding signal (z-score),[14],0.141
same,glycan array binding signal (z-score),[15],0.473
same,glycan array binding signal (z-score),[16],1.07
same,glycan array binding signal (z-score),[17],0.27
same,glycan array binding signal (z-score),[18],0.614
same,glycan array binding signal (z-score),[19],1.18
same,glycan array binding signal (z-score),[20],-0.449
same,glycan array binding signal (z-score),[21],-0.625
same,glycan array binding signal (z-score),[22],-0.192
same,glycan array binding signal (z-score),[23],-1.28
same,glycan array binding signal (z-score),[24],-0.268
same,glycan array binding signal (z-score),[25],0.011
same,glycan array binding signal (z-score),[26],-0.443
same,glycan array binding signal (z-score),[27],0.915
same,glycan array binding signal (z-score),[28],0.03
same,glycan array binding signal (z-score),[29],-0.199
same,glycan array binding signal (z-score),[30],-0.089
same,glycan array binding signal (z-score),[31],0.352
same,glycan array binding signal (z-score),[32],-0.496
same,glycan array binding signal (z-score),[33],-0.099
same,glycan array binding signal (z-score),[34],-0.088
same,glycan array binding signal (z-score),[35],-0.102
same,glycan array binding signal (z-score),[36],-0.409
same,glycan array binding signal (z-score),[37],0.752

# Some of the entries above, reformatted.
binder	measurement	setting	value
B1	glycan array binding signal (z-score)	[4]	-0.052
same	glycan array binding signal (z-score)	[5]	0.118
